Taken from: PubChem BioAssay AID652259 (Drosophila RNAi Screening Center, 2013)

- Assay: 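Identify new Wingless signalling regulators in fly cells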 (primary screen)
- System: Drosophila clone 8 imaginal disc epithelial cells
- Reagents: long dsRNA against Drosophila genes
- Treatment: pathway stimulated by co-transfected Wingless expression plasmid
- Measurement: 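Dual luciferase reads per well after Wingless plasmid stimulation: reporter firefly light and Renilla control light; activity is firefly divided by Renilla, a ratio not deposited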
- Direction: firefly reporter light: higher = more Wg reporter light, before normalisation; Renilla control light: higher = more transfected or surviving cells
- Hit rule: 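Strong candidates differ from their plate mean by at least two out of four per-plate statistical tests; weak candidates meet just one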
- Calls: active = candidate regulator (raises or lowers reporter); inactive = not a candidate
The deposit covers about 22,000 reagents; shown is a random part of those with a known target gene and a result. Over the whole deposit, 233 (1.1%) are marked active. 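Light values are raw, unnormalised plate reads; the ratio scores behind the reporter calls were not deposited.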 Not stated in the record: the amount of reagent, the time to read-out, the dose of the treatment.

| gene knocked down | dsRNA | reporter change call, replicate 1 | firefly reporter light, replicate 1 | firefly reporter light, replicate 2 | Renilla control light, replicate 1 | Renilla control light, replicate 2 | activity call |
| --- | --- | --- | --- | --- | --- | --- | --- |
| wrapper (GeneID 37555) | DRSC04723 | – | 9348 | – | 1955 | – | inactive |
| Fie (GeneID 38452) | DRSC08158 | – | 6436 | – | 2633 | – | inactive |
| CG33232 (retired record) (GeneID 2769004) | DRSC08187 | – | 12001 | – | 2884 | – | inactive |
| CG33232 (retired record) (GeneID 2769004) | DRSC08495 | – | 6410 | – | 2450 | – | inactive |
| Hand (GeneID 34379) | DRSC02656 | – | 2424 | 7079 | 1043 | 4160 | inactive |
| CG43315 (GeneID 12798419) | DRSC06296 | – | 6612 | – | 2957 | – | inactive |
| CG9812 (GeneID 37709) | DRSC04566 | – | 2608 | 7195 | 838 | 2720 | inactive |
| CG5335 (GeneID 37140) | DRSC06931 | – | 11205 | – | 3033 | – | inactive |
| CG17650 (GeneID 33358) | DRSC00510 | – | 2322 | 8739 | 897 | 2438 | inactive |
| cd (GeneID 42681) | DRSC16157 | – | 12311 | – | 12362 | – | inactive |
| mrj (GeneID 36797) | DRSC22592 | – | 7.37e5 | 7.59e5 | 2.63e5 | 67058 | inactive |
| CG17361 (GeneID 39548) | DRSC10266 | – | 6099 | – | 1869 | – | inactive |
| lncRNA:iab4 (GeneID 3772110) | DRSC22331 | – | 6.97e5 | 7.53e5 | 2.86e5 | 2.92e5 | inactive |
| Pdzd8 (GeneID 32157) | DRSC19355 | – | 21537 | – | 10189 | – | inactive |
| dyw (GeneID 31252) | DRSC18228 | – | 13754 | – | 8912 | – | inactive |
| CG30022 (GeneID 36233) | DRSC22405 | – | 5.68e5 | 5.97e5 | 2.11e5 | 2.04e5 | inactive |
| Klp31E (GeneID 34422) | DRSC03354 | – | 20077 | – | 1283 | – | inactive |
| Cpr76Bc (GeneID 40122) | DRSC11062 | – | 21881 | – | 7541 | – | inactive |
| CG11381 (GeneID 31067) | DRSC17780 | – | 14933 | – | 5554 | – | inactive |
| Tdc2 (GeneID 246620) | DRSC04999 | – | 3144 | 5932 | 822 | 2104 | inactive |
| CG33258 (GeneID 3885664) | DRSC09415 | – | 1971 | – | 753 | – | inactive |
| CG11350 (GeneID 38554) | DRSC08181 | – | 1920 | 10145 | 1047 | 3700 | inactive |
| CG2003 (GeneID 43761) | DRSC15411 | – | 18573 | – | 11041 | – | inactive |
| SIFa (GeneID 3346202) | DRSC04480 | – | 2736 | 6562 | 753 | 2618 | inactive |
| Kaz1-ORFB (GeneID 3772691) | DRSC08669 | Wg reporter activity raised | 4592 | – | 2144 | – | inactive |
| CG43980 (GeneID 2768995) | DRSC11500 | – | 3417 | – | 896 | – | inactive |
| CG43980 (GeneID 2768995) | DRSC11646 | – | 20540 | – | 8060 | – | inactive |
| CG43980 (GeneID 2768995) | DRSC22923 | – | 4.54e5 | 5.68e5 | 1.82e5 | 86014 | inactive |
| LysE (GeneID 38128) | DRSC08675 | – | 5405 | – | 2336 | – | inactive |
